For 9 molecules, Total and Unique results are on record in patent US12729225B2, “Non-canonical SWI/SNF complex and uses thereof” (Dana-Farber Cancer Institute, Inc., priority 2018, dated 2026).

The labels stand for the following.
B1: UBTF (protein, UniProt P17480 1-764, looked up)
Nucleolar transcription …: MNGEADCPTDLEMAAPKGQDRWSQEDMLTLLECMKNNLPSNDSSKFKTTESHMDWEKVAFKDFSGDMCKLKWVEISNEVRKFRTLTELILDAQEHVKNPYKGKKLKKHPDFPKKPLTPYFRFFMEKRAKYAKLHPEMSNLDLTKILSKKYKELPEKKKMKYIQDFQREKQEFERNLARFREDHPDLIQNAKKSDIPEKPKTPQQLWYTHEKKVYLKVRPDATTKEVKDSLGKQWSQLSDKKRLKWIHKALEQRKEYEEIMRDYIQKHPELNISEEGITKSTLTKAERQLKDKFDGRPTKPPPNSYSLYCAELMANMKDVPSTERMVLCSQQWKLLSQKEKDAYHKKCDQKKKDYEVELLRFLESLPEEEQQRVLGEEKMLNINKKQATSPASKKPAQEGGKGGSEKPKRPVSAMFIFSEEKRRQLQEERPELSESELTRLLARMWNDLSEKKKAKYKAREAALKAQSERKPGGEREERGKLPESPKRAEEIWQQSVIGDYLARFKNDRVKALKAMEMTWNNMEKKEKLMWIKKAAEDQKRYERELSEMRAPPAATNSSKKMKFQGEPKKPPMNGYQKFSQELLSNGELNHLPLKERMVEIGSRWQRISQSQKEHYKKLAEEQQKQYKVHLDLWVKSLSPQDRAAYKEYISNKRKSMTKLRGPNPKSSRTTLQSKSESEEDDEEDEDDEDEDEEEEDDENGDSSEDGGDSSESSSEDESEDGDENEEDDEDEDDDEDDDEDEDNESEGSSSSSSSSGDSSDSDSN
B2: KRT6B (protein, UniProt P04259 2-564, looked up)
Keratin, type II cytoskeletal …: ASTSTTIRSHSSSRRGFSANSARLPGVSRSGFSSISVSRSRGSGGLGGACGGAGFGSRSLYGLGGSKRISIGGGSCAISGGYGSRAGGSYGFGGAGSGFGFGGGAGIGFGLGGGAGLAGGFGGPGFPVCPPGGIQEVTVNQSLLTPLNLQIDPAIQRVRAEEREQIKTLNNKFASFIDKVRFLEQQNKVLDTKWTLLQEQGTKTVRQNLEPLFEQYINNLRRQLDNIVGERGRLDSELRNMQDLVEDLKNKYEDEINKRTAAENEFVTLKKDVDAAYMNKVELQAKADTLTDEINFLRALYDAELSQMQTHISDTSVVLSMDNNRNLDLDSIIAEVKAQYEEIAQRSRAEAESWYQTKYEELQITAGRHGDDLRNTKQEIAEINRMIQRLRSEIDHVKKQCANLQAAIADAEQRGEMALKDAKNKLEGLEDALQKAKQDLARLLKEYQELMNVKLALDVEIATYRKLLEGEECRLNGEGVGQVNISVVQSTVSSGYGGASGVGSGLGLGGGSSYSYGSGLGVGGGFSSSSGRATGGGLSSVGGGSSTIKYTTTSSSSRKSYKH
B3: CCDC59 (protein, UniProt Q9P031 1-241, looked up)
Thyroid transcription factor …: MAPVRRSAKWRPGGIEARGEGVSTVGYRNKNVRQKTWRPNHPQAFVGSVREGQGFAFRRKLKIQQSYKKLLRKEKKAQTSLESQFTDRYPDNLKHLYLAEEERHRKQARKVDHPLSEQVHQPLLEEQCSIDEPLFEDQCSFDQPQPEEQCIKTVNSFTIPKKNKKKTSNQKAQEEYEQIQAKRAAKKQEFERRKQEREEAQRQYKKKKMEVFKILNKKTKKGQPNLNVQMEYLLQKIQEKC
B4: PDIA4 (protein, UniProt P13667 21-645, looked up)
Protein disulfide-isomerase A4: VAGAEGPDEDSSNRENAIEDEEEEEEEDDDEEEDDLEVKEENGVLVLNDANFDNFVADKDTVLLEFYAPWCGHCKQFAPEYEKIANILKDKDPPIPVAKIDATSASVLASRFDVSGYPTIKILKKGQAVDYEGSRTQEEIVAKVREVSQPDWTPPPEVTLVLTKENFDEVVNDADIILVEFYAPWCGHCKKLAPEYEKAAKELSKRSPPIPLAKVDATAETDLAKRFDVSGYPTLKIFRKGRPYDYNGPREKYGIVDYMIEQSGPPSKEILTLKQVQEFLKDGDDVIIIGVFKGESDPAYQQYQDAANNLREDYKFHHTFSTEIAKFLKVSQGQLVVMQPEKFQSKYEPRSHMMDVQGSTQDSAIKDFVLKYALPLVGHRKVSNDAKRYTRRPLVVVYYSVDFSFDYRAATQFWRSKVLEVAKDFPEYTFAIADEEDYAGEVKDLGLSESGEDVNAAILDESGKKFAMEPEEFDSDTLREFVTAFKKGKLKPVIKSQPVPKNNKGPVKVVVGKTFDSIVMDPKKDVLIEFYAPWCGHCKQLEPVYNSLAKKYKGQKGLVIAKMDATANDVPSDRYKVEGFPTIYFAPSGDKKNPVKFEGGDRDLEHLSKFIEEHATKLSRTKEEL
B5: SLC16A1 (protein, UniProt P53985 1-500, looked up)
Monocarboxylate transporter 1: MPPAVGGPVGYTPPDGGWGWAVVIGAFISIGFSYAFPKSITVFFKEIEGIFHATTSEVSWISSIMLAVMYGGGPISSILVNKYGSRIVMIVGGCLSGCGLIAASFCNTVQQLYVCIGVIGGLGLAFNLNPALTMIGKYFYKRRPLANGLAMAGSPVFLCTLAPLNQVFFGIFGWRGSFLILGGLLLNCCVAGALMRPIGPKPTKAGKDKSKASLEKAGKSGVKKDLHDANTDLIGRHPKQEKRSVFQTINQFLDLTLFTHRGFLLYLSGNVIMFFGLFAPLVFLSSYGKSQHYSSEKSAFLLSILAFVDMVARPSMGLVANTKPIRPRIQYFFAASVVANGVCHMLAPLSTTYVGFCVYAGFFGFAFGWLSSVLFETLMDLVGPQRFSSAVGLVTIVECCPVLLGPPLLGRLNDMYGDYKYTYWACGVVLIISGIYLFIGMGINYRLLAKEQKANEQKKESKEEETSIDVAGKPNEVTKAAESPDQKDTDGGPKEEESPV
B6: PCBP2 (protein, UniProt Q15366 1-365, looked up)
Poly(rC)-binding protein 2: MDTGVIEGGLNVTLTIRLLMHGKEVGSIIGKKGESVKKMREESGARINISEGNCPERIITLAGPTNAIFKAFAMIIDKLEEDISSSMTNSTAASRPPVTLRLVVPASQCGSLIGKGGCKIKEIRESTGAQVQVAGDMLPNSTERAITIAGIPQSIIECVKQICVVMLETLSQSPPKGVTIPYRPKPSSSPVIFAGGQDRYSTGSDSASFPHTTPSMCLNPDLEGPPLEAYTIQGQYAIPQPDLTKLHQLAMQQSHFPMTHGNTGFSGIESSSPEVKGYWGLDASAQTTSHELTIPNDLIGCIIGRQGAKINEIRQMSGAQIKIANPVEGSTDRQVTITGSAASISLAQYLINVRLSSETGGMGSS
B7: LETM1 (protein, UniProt O95202 116-739, looked up)
Mitochondrial proton/calcium …: DDSVVEKSLKSLKDKNKKLEEGGPVYSPPAEVVVKKSLGQRVLDELKHYYHGFRLLWIDTKIAARMLWRILNGHSLTRRERRQFLRICADLFRLVPFLVFVVVPFMEFLLPVAVKLFPNMLPSTFETQSLKEERLKKELRVKLELAKFLQDTIEEMALKNKAAKGSATKDFSVFFQKIRETGERPSNEEIMRFSKLFEDELTLDNLTRPQLVALCKLLELQSIGTNNFLRFQLTMRLRSIKADDKLIAEEGVDSLNVKELQAACRARGMRALGVTEDRLRGQLKQWLDLHLHQEIPTSLLILSRAMYLPDTLSPADQLKSTLQTLPEIVAKEAQVKVAEVEGEQVDNKAKLEATLQEEAAIQQEHREKELQKRSEVAKDFEPERVVAAPQRPGTEPQPEMPDTVLQSETLKDTAPVLEGLKEEEITKEEIDILSDACSKLQEQKKSLTKEKEELELLKEDVQDYSEDLQEIKKELSKTGEEKYVEESKASKRLTKRVQQMIGQIDGLISQLEMDQQAGKLAPANGMPTGENVISVAELINAMKQVKHIPESKLTSLAAALDENKDGKVNIDDLVKVIELVDKEDVHISTSQVAEIVATLEKEEKVEEKEKAKEKAEKEVAEVKS
B8: KDM4D (protein, UniProt Q6B0I6 1-523, looked up)
Lysine-specific demethylase 4D: METMKSKANCAQNPNCNIMIFHPTKEEFNDFDKYIAYMESQGAHRAGLAKIIPPKEWKARETYDNISEILIATPLQQVASGRAGVFTQYHKKKKAMTVGEYRHLANSKKYQTPPHQNFEDLERKYWKNRIYNSPIYGADISGSLFDENTKQWNLGHLGTIQDLLEKECGVVIEGVNTPYLYFGMWKTTFAWHTEDMDLYSINYLHLGEPKTWYVVPPEHGQRLERLARELFPGSSRGCGAFLRHKVALISPTVLKENGIPFNRITQEAGEFMVTFPYGYHAGFNHGFNCAEAINFATPRWIDYGKMASQCSCGEARVTFSMDAFVRILQPERYDLWKRGQDRAVVDHMEPRVPASQELSTQKEVQLPRRAALGLRQLPSHWARHSPWPMAARSGTRCHTLVCSSLPRRSAVSGTATQPRAAAVHSSKKPSSTPSSTPGPSAQIIHPSNGRRGRGRPPQKLRAQELTLQTPAKRPLLAGTTCTASGPEPEPLPEDGALMDKPVPLSPGLQHPVKASGCSWAPVP
B9: MCM5 (protein, UniProt P33992 2-734, looked up)
DNA replication licensing …: SGFDDPGIFYSDSFGGDAQADEGQARKSQLQRRFKEFLRQYRVGTDRTGFTFKYRDELKRHYNLGEYWIEVEMEDLASFDEDLADYLYKQPAEHLQLLEEAAKEVADEVTRPRPSGEEVLQDIQVMLKSDASPSSIRSLKSDMMSHLVKIPGIIIAASAVRAKATRISIQCRSCRNTLTNIAMRPGLEGYALPRKCNTDQAGRPKCPLDPYFIMPDKCKCVDFQTLKLQELPDAVPHGEMPRHMQLYCDRYLCDKVVPGNRVTIMGIYSIKKFGLTTSRGRDRVGVGIRSSYIRVLGIQVDTDGSGRSFAGAVSPQEEEEFRRLAALPNVYEVISKSIAPSIFGGTDMKKAIACLLFGGSRKRLPDGLTRRGDINLLMLGDPGTAKSQLLKFVEKCSPIGVYTSGKGSSAAGLTASVMRDPSSRNFIMEGGAMVLADGGVVCIDEFDKMREDDRVAIHEAMEQQTISIAKAGITTTLNSRCSVLAAANSVFGRWDETKGEDNIDFMPTILSRFDMIFIVKDEHNEERDVMLAKHVITLHVSALTQTQAVEGEIDLAKLKKFIAYCRVKCGPRLSAEAAEKLKNRYIIMRSGARQHERDSDRRSSIPITVRQLEAIVRIAEALSKMKLQPFATEADVEEALRLFQVSTLDAALSGTLSGVEGFTSQEDQEMLSRIEKQLKRRFAIGSQVSEHSIIKDFTKQKYPEHAIHKVLQLMLRRGEIQHRMQRKVLYRLK

The test system of one data set is mSWI/SNF complexes. Description: mSWI/SNF complex purification with HA-tagged baits and mass spectrometry (peptide counts). The conditions noted are these: 293_HA-BRD7 bait purification, mass spectrometry; total peptides per co-purified protein. Also on record: species or system human.
The molecule B1 registered a Total of 2.
On the same count and under the same terms, with B2 the figure was 2.
Same read-out and setting: then B3, with 2; and B4, with 2; and B5, with 2.
Turning to B6, the Total came to 2.
In turn, B7 returned a Total of 2.
In turn, B8 registered a Total of 2.
In turn, B9 returned a Total of 2.

Still in this data set, the particulars now being: 293_HA-BRD7 bait purification, mass spectrometry; unique peptides per co-purified protein.
Take B1: the Unique came out at 2.
The molecule B2 registered a Unique of 2.
Regarding B3, the Unique was 2.
The molecule B4 came in with a Unique of 2.
B5 registered a Unique of 2.
B6 yielded a Unique of 2.
B7 registered a Unique of 2.
The molecule B8 came in with a Unique of 2.
Consider B9, for which the Unique was 2.
